The other results are listed elsewhere or left out. Residues, ends and D or L forms follow the SMILES beside them. *: point of attachment. Cbz = O=C(OCc1ccccc1)*
What was measured:
Test in all cases: log2 fold change, soluble protein after heating vs DMSO (PISA); higher = thermal stabilisation; K562 cells, 10 uM, 30 min; active = over 0.2 and 3.5 SD of the protein, either way, in both replicates (recomputed)
[1] = compound: C1=CC2=NC=CN=C2C=C1/C=C/3\C(=O)NC(=O)S3
Procedure, shortened: (§1)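 K562 cells at 2×10^6 cells/mL were exposed to 10 μM compound for 30 min, then aliquots were heated for 3 min across 48°C-58°C, pooled, and extracted in PBS containing 0.5% NP-40 at 4°C. The supernatant after 21,000xg for 90 min was taken as soluble protein and measured by TMTpro 16plex LC-MS/MS with channel sums equalised. Thermal stability is reported relative to control samples, with values from duplicates. Fold changes are given on a log2 scale.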

Protein sequences, listed by entry. Tags and fused reporters are not part of them. Lines headed by an entry give the natural chain unless they say otherwise; changes in a name come on top.
UniProt Q9UHL0: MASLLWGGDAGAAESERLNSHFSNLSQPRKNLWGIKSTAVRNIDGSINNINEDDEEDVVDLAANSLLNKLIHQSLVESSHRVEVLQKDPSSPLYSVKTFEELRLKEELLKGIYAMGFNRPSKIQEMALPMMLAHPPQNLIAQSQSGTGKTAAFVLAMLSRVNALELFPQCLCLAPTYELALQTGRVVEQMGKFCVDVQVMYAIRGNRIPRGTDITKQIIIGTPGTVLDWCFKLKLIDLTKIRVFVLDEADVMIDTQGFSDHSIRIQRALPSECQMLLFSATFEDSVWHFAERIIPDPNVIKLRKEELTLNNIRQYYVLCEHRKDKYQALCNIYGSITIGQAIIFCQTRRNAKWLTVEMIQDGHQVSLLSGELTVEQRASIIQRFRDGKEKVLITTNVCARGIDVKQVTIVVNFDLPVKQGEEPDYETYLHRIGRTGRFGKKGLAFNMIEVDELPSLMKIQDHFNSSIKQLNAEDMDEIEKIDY
UniProt Q7L7V1: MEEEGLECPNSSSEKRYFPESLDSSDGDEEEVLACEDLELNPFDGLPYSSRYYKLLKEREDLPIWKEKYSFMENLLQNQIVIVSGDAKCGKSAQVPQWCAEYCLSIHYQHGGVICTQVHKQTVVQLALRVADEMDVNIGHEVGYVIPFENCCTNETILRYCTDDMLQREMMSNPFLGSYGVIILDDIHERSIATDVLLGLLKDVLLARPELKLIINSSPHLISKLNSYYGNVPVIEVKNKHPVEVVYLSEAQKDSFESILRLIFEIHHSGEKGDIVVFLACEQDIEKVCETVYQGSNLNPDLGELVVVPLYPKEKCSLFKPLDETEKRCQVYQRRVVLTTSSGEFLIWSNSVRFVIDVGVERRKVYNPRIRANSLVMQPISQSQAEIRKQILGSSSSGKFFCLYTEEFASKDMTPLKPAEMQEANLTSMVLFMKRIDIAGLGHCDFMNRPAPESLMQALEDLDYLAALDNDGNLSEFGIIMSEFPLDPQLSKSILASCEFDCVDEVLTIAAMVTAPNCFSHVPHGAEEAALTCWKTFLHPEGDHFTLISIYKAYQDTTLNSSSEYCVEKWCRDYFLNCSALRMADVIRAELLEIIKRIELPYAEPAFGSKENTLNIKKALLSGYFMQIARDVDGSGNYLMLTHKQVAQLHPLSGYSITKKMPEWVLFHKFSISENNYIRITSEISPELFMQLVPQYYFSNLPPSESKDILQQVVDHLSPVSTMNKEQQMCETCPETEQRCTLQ
UniProt Q9GZR7: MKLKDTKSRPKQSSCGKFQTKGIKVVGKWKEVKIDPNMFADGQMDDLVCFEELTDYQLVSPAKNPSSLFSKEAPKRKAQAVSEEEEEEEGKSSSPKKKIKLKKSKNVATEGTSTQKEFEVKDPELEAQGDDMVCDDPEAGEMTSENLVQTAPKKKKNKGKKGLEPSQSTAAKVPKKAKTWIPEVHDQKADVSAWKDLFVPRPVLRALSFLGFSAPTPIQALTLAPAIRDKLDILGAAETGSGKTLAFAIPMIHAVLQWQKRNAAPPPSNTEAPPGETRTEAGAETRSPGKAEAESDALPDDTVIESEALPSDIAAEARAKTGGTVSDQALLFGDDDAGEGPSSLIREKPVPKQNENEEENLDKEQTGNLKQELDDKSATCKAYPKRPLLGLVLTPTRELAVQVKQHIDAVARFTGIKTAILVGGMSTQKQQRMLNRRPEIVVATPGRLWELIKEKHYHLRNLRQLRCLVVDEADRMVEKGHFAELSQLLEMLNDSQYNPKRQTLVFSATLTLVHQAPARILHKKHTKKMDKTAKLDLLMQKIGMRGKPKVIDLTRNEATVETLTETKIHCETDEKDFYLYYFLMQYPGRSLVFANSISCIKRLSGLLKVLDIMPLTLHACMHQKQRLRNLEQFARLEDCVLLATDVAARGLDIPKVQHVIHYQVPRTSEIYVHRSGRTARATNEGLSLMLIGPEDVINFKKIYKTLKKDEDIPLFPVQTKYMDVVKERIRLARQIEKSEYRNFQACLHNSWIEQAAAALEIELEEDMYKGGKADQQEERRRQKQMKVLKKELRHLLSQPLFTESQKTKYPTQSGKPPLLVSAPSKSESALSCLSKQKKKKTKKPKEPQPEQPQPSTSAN
UniProt Q9NVP1: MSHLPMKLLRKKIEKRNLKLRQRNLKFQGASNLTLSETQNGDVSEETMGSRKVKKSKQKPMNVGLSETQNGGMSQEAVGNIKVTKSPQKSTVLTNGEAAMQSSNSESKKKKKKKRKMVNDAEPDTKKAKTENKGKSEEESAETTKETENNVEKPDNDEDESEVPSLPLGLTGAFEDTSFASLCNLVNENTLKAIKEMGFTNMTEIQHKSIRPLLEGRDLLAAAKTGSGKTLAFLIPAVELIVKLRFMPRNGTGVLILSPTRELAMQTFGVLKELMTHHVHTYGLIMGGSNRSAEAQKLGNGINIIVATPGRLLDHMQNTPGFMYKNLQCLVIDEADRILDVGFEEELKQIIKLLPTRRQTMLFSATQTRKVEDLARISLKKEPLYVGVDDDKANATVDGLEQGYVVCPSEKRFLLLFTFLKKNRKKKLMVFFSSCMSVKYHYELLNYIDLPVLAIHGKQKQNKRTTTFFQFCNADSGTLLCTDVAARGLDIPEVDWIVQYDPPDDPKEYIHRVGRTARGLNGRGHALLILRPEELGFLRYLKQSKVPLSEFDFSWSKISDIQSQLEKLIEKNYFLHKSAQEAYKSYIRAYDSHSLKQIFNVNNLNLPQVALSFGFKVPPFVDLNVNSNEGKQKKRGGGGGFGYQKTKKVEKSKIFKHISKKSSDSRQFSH
UniProt O00273: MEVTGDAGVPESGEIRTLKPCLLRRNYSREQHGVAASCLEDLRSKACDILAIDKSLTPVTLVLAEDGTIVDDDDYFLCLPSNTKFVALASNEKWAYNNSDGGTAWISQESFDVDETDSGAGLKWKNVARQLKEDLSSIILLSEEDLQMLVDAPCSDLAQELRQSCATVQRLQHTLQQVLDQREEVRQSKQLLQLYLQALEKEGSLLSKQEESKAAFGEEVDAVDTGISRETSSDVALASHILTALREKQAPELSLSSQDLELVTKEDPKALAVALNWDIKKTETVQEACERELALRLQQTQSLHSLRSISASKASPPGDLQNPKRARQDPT
UniProt P80370: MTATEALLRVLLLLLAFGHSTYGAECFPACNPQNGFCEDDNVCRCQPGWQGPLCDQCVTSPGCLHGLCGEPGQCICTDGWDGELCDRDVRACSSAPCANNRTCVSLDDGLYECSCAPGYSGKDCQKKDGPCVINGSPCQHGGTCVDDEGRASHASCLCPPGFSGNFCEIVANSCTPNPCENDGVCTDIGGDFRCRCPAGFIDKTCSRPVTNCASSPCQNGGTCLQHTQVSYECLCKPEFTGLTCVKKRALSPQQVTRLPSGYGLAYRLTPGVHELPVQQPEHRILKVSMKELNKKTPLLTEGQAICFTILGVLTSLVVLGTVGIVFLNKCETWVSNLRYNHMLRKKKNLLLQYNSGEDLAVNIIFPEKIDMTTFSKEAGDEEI
UniProt Q9UGM3: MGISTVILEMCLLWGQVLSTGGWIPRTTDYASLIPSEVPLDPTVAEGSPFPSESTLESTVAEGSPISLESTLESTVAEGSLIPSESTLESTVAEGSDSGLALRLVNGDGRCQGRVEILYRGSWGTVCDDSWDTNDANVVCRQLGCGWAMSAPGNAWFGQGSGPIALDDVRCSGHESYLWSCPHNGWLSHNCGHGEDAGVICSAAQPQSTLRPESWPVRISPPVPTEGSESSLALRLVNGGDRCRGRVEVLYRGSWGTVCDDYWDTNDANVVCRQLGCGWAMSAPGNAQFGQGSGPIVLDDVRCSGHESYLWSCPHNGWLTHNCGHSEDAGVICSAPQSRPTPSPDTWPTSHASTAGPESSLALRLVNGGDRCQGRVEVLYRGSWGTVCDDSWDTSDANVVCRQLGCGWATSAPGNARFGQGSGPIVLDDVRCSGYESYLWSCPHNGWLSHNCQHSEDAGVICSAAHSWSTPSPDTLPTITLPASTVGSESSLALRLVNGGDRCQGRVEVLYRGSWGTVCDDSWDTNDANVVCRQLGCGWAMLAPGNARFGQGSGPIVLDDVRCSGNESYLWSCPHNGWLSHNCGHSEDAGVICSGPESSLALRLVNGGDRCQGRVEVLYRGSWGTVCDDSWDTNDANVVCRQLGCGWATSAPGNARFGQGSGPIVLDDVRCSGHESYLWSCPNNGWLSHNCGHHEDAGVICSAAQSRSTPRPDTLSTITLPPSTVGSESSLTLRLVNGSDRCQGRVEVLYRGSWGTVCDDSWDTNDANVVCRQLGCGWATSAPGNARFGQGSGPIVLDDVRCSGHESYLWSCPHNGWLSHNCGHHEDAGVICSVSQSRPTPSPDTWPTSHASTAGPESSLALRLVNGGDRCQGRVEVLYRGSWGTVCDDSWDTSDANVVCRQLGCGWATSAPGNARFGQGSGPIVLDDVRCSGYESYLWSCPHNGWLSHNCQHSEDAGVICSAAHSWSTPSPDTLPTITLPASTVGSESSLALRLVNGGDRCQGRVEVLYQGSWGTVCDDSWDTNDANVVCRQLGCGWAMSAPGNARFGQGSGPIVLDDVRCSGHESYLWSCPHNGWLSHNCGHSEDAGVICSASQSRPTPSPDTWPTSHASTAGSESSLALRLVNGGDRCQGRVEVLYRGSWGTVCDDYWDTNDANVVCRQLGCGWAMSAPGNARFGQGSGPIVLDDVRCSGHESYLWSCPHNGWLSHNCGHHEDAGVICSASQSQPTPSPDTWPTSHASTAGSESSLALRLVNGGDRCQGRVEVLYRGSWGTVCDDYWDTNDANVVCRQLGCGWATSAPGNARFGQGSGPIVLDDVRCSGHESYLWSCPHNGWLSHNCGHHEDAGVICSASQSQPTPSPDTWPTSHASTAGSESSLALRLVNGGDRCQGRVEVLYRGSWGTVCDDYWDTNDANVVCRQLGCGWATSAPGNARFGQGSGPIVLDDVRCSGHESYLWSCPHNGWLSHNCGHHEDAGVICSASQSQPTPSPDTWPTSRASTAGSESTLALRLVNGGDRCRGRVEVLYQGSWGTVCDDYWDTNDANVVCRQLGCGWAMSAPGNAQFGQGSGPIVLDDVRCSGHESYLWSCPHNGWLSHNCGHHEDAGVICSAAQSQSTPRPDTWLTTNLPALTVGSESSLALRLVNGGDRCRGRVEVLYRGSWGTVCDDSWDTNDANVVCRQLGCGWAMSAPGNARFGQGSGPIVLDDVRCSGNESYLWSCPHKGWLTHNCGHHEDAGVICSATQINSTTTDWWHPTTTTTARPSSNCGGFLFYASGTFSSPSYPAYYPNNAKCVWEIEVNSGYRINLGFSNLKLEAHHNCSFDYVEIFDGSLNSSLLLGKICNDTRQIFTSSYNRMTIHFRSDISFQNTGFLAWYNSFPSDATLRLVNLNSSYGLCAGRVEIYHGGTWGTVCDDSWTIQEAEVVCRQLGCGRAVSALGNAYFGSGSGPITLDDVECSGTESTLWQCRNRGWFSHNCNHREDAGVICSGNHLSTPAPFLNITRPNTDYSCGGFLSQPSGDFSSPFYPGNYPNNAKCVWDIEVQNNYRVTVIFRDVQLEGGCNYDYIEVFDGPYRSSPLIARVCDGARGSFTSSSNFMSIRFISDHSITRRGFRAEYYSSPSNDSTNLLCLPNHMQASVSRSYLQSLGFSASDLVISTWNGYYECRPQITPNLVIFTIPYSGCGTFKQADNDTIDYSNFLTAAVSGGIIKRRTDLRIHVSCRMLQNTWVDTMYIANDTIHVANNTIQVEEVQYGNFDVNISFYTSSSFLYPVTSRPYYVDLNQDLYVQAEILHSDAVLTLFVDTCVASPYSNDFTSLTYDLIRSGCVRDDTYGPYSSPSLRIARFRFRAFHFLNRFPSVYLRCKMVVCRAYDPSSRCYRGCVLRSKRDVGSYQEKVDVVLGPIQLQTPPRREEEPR
UniProt Q9Y2R4: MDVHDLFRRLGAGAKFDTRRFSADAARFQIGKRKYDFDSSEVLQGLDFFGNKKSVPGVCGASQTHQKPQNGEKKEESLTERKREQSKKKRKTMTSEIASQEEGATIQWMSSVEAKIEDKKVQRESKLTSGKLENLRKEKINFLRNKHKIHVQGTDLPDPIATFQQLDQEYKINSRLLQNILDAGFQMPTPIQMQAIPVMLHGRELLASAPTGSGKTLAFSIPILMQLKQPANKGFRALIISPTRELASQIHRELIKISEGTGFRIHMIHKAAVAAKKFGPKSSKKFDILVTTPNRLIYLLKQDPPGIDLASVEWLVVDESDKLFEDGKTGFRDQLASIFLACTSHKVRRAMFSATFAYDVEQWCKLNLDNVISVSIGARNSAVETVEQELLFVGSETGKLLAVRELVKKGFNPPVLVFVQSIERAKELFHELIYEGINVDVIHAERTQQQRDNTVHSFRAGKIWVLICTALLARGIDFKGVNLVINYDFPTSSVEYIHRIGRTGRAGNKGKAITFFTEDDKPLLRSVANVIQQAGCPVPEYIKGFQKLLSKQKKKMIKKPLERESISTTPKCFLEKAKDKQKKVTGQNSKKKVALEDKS

[2] = compound: C1=CC=C(C=C1)C2=NC(=C(N2)C3=CC=NC=C3)C4=CC(=C(C=C4)Cl)O
Procedure, shortened: as §1

[3] = compound: C1CCN(C1)C(=O)NC2=CC=CC(=C2)NC3=NC=C(C(=N3)NCCC4=CN=CN4)Br
Procedure, shortened: as §1

[4] = compound: C1CN(CCC1(CC2=CC=C(C=C2)Cl)N)C3=NC=NC4=C3C=CN4
Procedure, shortened: as §1

IRAK-1-4 Inhibitor I = compound: C1COCCN1CCN2C3=CC=CC=C3N=C2NC(=O)C4=CC(=CC=C4)[N+](=O)[O-] [IRAK-1-4 Inhibitor I]
Procedure, shortened: as §1

ibrutinib = compound: C=CC(=O)N1CCC[C@@H](n2nc(-c3ccc(Oc4ccccc4)cc3)c3c(N)ncnc32)C1 [ibrutinib]
Procedure, shortened: as §1

ralimetinib = compound: CC(C)(C)Cn1c(N)nc2ccc(-c3[nH]c(C(C)(C)C)nc3-c3ccc(F)cc3)nc21 [ralimetinib]
Procedure, shortened: as §1

[5] = compound: CC(C)C[C@@H](C=O)NC(=O)[C@H](CC(C)C)NC(=O)[C@H](CC(C)C)NC(=O)OCc1ccccc1
Procedure, shortened: as §1

pinometostat = compound: CC(C)N(C[C@H]1O[C@@H](n2cnc3c(N)ncnc32)[C@H](O)[C@@H]1O)[C@H]1C[C@@H](CCc2nc3cc(C(C)(C)C)ccc3[nH]2)C1 [pinometostat]
Procedure, shortened: as §1

[6] = compound: CC1=C(C(CC(=O)N1)C2=CC=C(C=C2)C(F)(F)F)C(=O)NC3=C(C=C4C(=C3)C=NN4)F
Procedure, shortened: as §1

[7] = compound: CC1=C(C2=C(C=C1)C(=O)C3=CC=CC=C3N2CCCN)C
Procedure, shortened: as §1

[8] = compound: C/C(=N\NC(=O)C1=CC(=CC=C1)S(=O)(=O)N2CCOCC2)/C3=C(C=CC(=C3)Cl)O
Procedure, shortened: as §1

[9] = compound: C1=CC2=C(C=CC(=C2)/C=C\3/C(=O)NC(=NCC4=CC=CS4)S3)N=C1
Procedure, shortened: as §1

[10] = compound: C1=CC=C2C(=C1)C3=NNC4=CC=CC(=C43)C2=O
Procedure, shortened: as §1

[11] = compound: CC(=O)c1cnc2ccc(-c3cc(Cl)c(O)c(Cl)c3)nc2c1N[C@H]1CC[C@H](CN(C)C)CC1
Procedure, shortened: as §1

erlotinib = compound: C#Cc1cccc(Nc2ncnc3cc(OCCOC)c(OCCOC)cc23)c1 [erlotinib]
Procedure, shortened: as §1

[12] = compound: C1=CC(=C(C=C1Cl)C2=NC3=NC=CN=C3C(=N2)NC4=CC=NC=C4)F
Procedure, shortened: as §1

[13] = compound: C1=CC(=CC=C1C2=NC3=C(N2)C=C(C=C3)C(=O)N)OC4=CC=C(C=C4)Cl
Procedure, shortened: as §1

[14] = compound: CC(C)(O)CC(=O)NCCn1ccc2ncnc(Nc3ccc(Oc4cccc(C(F)(F)F)c4)c(Cl)c3)c21
Procedure, shortened: as §1

[15] = compound: CC(C)C1=C2N=C(C=C(N2N=C1)NCC3=CC=CC=C3)NCCCCCCN
Procedure, shortened: as §1

Measured: log2 fold change

DMTN isoform 2 (UniProt Q08495)
inactive: [1] -0.078 | [2] 0.115 | [3] -0.152 | [4] 0.151 | IRAK-1-4 Inhibitor I 0.152 | ibrutinib 0.201 | ralimetinib 0.02 | [5] -0.133 | pinometostat 0.057 | [6] -0.028 | [7] 0.077

DDX25 (UniProt Q9UHL0)
inactive: [8] 0 | [9] -0.262 | [1] -0.026 | [10] 0.148 | [3] 0.256 | [4] 0.141 | IRAK-1-4 Inhibitor I -0.12 | ibrutinib -0.078 | [11] 0.16 | pinometostat 0.135 | [6] -0.077 | [7] -0.114

DDR1 isoform 5 (UniProt Q08345)
inactive: erlotinib -0.187 | [12] -0.045 | [13] -0.003 | [2] 0.008 | IRAK-1-4 Inhibitor I 0.153 | ralimetinib 0.017 | [14] 0.054 | [15] -0.248 | [5] 0.256 | pinometostat -0.063

DDX46, A0A0C4DG89
inactive: [12] 0.174 | [14] -0.123

DHX32 (UniProt Q7L7V1)
inactive: [12] 0.007 | [3] -0.09 | [4] 0.013 | [14] 0.031 | [7] 0.222

DEF6 (UniProt Q9H4E7)
inactive: [12] -0.311 | [2] -0.046 | [3] 0.08 | [4] 0.029 | IRAK-1-4 Inhibitor I 0.108 | ralimetinib -0.101 | [14] 0.054 | [5] 0.049 | pinometostat -0.102 | [7] 0.172

DHX35 (UniProt Q9H5Z1)
inactive: [12] -0.097 | [14] 0.05 | [6] 0.174

DHX34 (UniProt Q14147)
inactive: erlotinib 0.06 | [12] -0.063 | [13] 0.148 | [2] 0.003 | [3] 0.038 | [4] 0.01 | IRAK-1-4 Inhibitor I 0.019 | ralimetinib 0.089 | [14] 0.075 | [15] 0.271 | [5] -0.017 | pinometostat 0.037 | [7] 0.256

DERPC (UniProt P0CG12)
inactive: erlotinib 0.197 | [13] -0.346 | [1] 0.078 | [2] -0.034 | IRAK-1-4 Inhibitor I -0.077 | ibrutinib 0.004 | ralimetinib 0.017 | [15] -0.003 | [5] -0.029 | pinometostat 0.161

DENND1C (UniProt Q8IV53)
inactive: erlotinib 0.159 | [13] -0.106 | [15] 0.031

DDX24 (UniProt Q9GZR7)
inactive: [8] -0.251 | [12] -0.401 | [9] -0.176 | [2] 0.019 | [10] 0.026 | [3] 0.125 | [4] -0.278 | IRAK-1-4 Inhibitor I -0.2 | [11] 0.179 | ralimetinib 0.181 | [14] 0.005 | [5] 0.361 | pinometostat 0.229 | [7] -0.39

DDX18 (UniProt Q9NVP1)
inactive: [8] -0.075 | [9] 0.04 | [10] -0.047 | [3] 0 | [4] -0.018 | IRAK-1-4 Inhibitor I 0.175 | [11] 0.102 | pinometostat 0.095 | [7] -0.242

DLC1 (UniProt Q96QB1)
inactive: [12] -0.047 | IRAK-1-4 Inhibitor I 0.075 | [14] -0.005 | pinometostat 0.015 | [6] -0.05

DNAH10 (UniProt Q8IVF4)
inactive: erlotinib 0.325 | [12] 0.251 | [13] -0.187 | [1] -0.054 | [3] -0.052 | [4] 0.137 | IRAK-1-4 Inhibitor I 0.004 | ibrutinib 0.018 | [14] -0.127 | [15] 0.162 | pinometostat -0.106 | [7] -0.022

DDX10 (UniProt Q13206)
inactive: erlotinib -0.14 | [13] 0.237 | [15] -0.44

DFFA isoform 2 (UniProt O00273)
inactive: erlotinib 0.209 | [12] -0.033 | [13] 0.004 | [1] -0.03 | IRAK-1-4 Inhibitor I -0.041 | ibrutinib -0.032 | [14] 0.058 | [15] 0.005 | pinometostat -0.11 | [6] 0.042

DEPDC5 (UniProt O75140)
inactive: IRAK-1-4 Inhibitor I -0.22 | pinometostat -0.116

DDX55 (UniProt Q8NHQ9)
inactive: [1] 0 | [3] 0.026 | [4] -0.042 | ibrutinib -0.028 | [7] 0.019

DDX39B (UniProt H0Y400)
inactive: erlotinib -0.198 | [12] -0.11 | [13] -0.031 | [14] -0.135 | [15] 0.393

DLK1 (UniProt P80370)
inactive: [12] 0.028 | IRAK-1-4 Inhibitor I 0.023 | [14] -0.034 | pinometostat 0.099

DDB1 isoform 2 (UniProt Q16531)
inactive: [12] 0.017 | [1] 0.205 | ibrutinib -0.034 | [14] 0.078

DESI2 (UniProt Q9BSY9)
inactive: erlotinib -0.057 | [13] 0.007 | [1] 0.097 | [3] -0.05 | [4] 0 | IRAK-1-4 Inhibitor I -0.038 | ibrutinib 0.048 | [15] 0.203 | pinometostat -0.013 | [6] -0.196 | [7] -0.01

DDX47 (UniProt Q9H0S4)
inactive: [8] -0.114 | [12] -0.408 | [9] -0.015 | [1] -0.158 | [2] -0.266 | [10] 0.154 | IRAK-1-4 Inhibitor I -0.01 | ibrutinib -0.018 | [11] 0.305 | ralimetinib 0.224 | [14] 0.036 | [5] 0.15 | pinometostat 0.1 | [6] -0.168

DDX11L8 (UniProt A8MPP1)
inactive: [1] 0.059 | ibrutinib -0.066

DET1 isoform 2 (UniProt Q7L5Y6)
inactive: [2] -0.026 | IRAK-1-4 Inhibitor I 0.04 | ralimetinib -0.048 | [5] 0.106 | pinometostat 0.067

DMBT1 isoform 6 (UniProt Q9UGM3)
inactive: [12] -0.331 | [1] 0.041 | ibrutinib -0.327 | [14] 0.036 | [6] -0.534

DECR1 (UniProt E5RJD2)
inactive: [1] -0.047 | ibrutinib 0.099 | [6] -0.056

DENND1A isoform 6 (UniProt Q8TEH3)
inactive: [1] -0.328 | [3] -0.315 | [4] -0.034 | IRAK-1-4 Inhibitor I 0.121 | ibrutinib -0.003 | pinometostat -0.356 | [7] 0.113

DENND4A isoform 2 (UniProt Q7Z401)
inactive: [8] 0.055 | [12] -0.045 | [9] 0.118 | [1] 0.052 | [2] -0.045 | [10] -0.162 | [3] 0.129 | [4] 0 | IRAK-1-4 Inhibitor I 0.081 | ibrutinib -0.048 | [11] -0.275 | ralimetinib 0.037 | [14] -0.026 | [5] 0.055 | pinometostat 0.085 | [6] 0.097 | [7] -0.036

DDX52 (UniProt Q9Y2R4)
inactive: [1] -0.101 | [2] -0.158 | IRAK-1-4 Inhibitor I -0.086 | ibrutinib -0.219 | ralimetinib -0.002 | [5] 0.141 | pinometostat 0.544

DENND1B (UniProt Q6P3S1)
inactive: [8] 0.105 | [12] -0.136 | [9] -0.131 | [1] 0.056 | [10] 0.032 | IRAK-1-4 Inhibitor I 0.091 | ibrutinib 0.071 | [11] 0 | [14] 0.153 | pinometostat -0.023 | [6] 0.231

DHPS (UniProt M0R1T2)
inactive: [1] 0.099 | ibrutinib 0.124

DMKN (UniProt Q6E0U4)
inactive: erlotinib -0.012 | [13] 0.185 | [1] 0.076 | [2] -0.014 | [3] -0.03 | [4] -0.43 | ibrutinib 0.194 | ralimetinib -0.106 | [15] -0.237 | [5] -0.055 | [6] -0.226 | [7] 1.29

DIRAS1 (UniProt O95057)
inactive: [3] 0.085 | [4] 0.056 | [7] -0.039

DNAAF5 (UniProt Q86Y56)
inactive: [8] -0.074 | [12] -0.564 | [9] 0.042 | [1] -0.023 | [2] 0.032 | [10] -0.056 | [3] 0.055 | [4] -0.125 | IRAK-1-4 Inhibitor I -0.095 | ibrutinib 0.027 | [11] 0.161 | ralimetinib 0.268 | [14] 0.113 | [5] 0.268 | pinometostat 0.457 | [7] -0.159

DDHD1 (UniProt Q8NEL9)
inactive: erlotinib -0.001 | [13] 0.067 | [1] 0.258 | [2] -0.117 | IRAK-1-4 Inhibitor I -0.068 | ibrutinib 0.037 | ralimetinib -0.012 | [15] -0.03 | [5] 0.063 | pinometostat -0.118

Copied from the results shown (6 entries):
DENND4A isoform 2 (UniProt Q7Z401)
inactive: [8] 0.055 | [12] -0.045 | [9] 0.118 | [1] 0.052 | [2] -0.045 | [10] -0.162 | [3] 0.129 | [4] 0 | IRAK-1-4 Inhibitor I 0.081 | ibrutinib -0.048 | [11] -0.275 | ralimetinib 0.037 | [14] -0.026 | [5] 0.055 | pinometostat 0.085 | [6] 0.097 | [7] -0.036

DDX52 (UniProt Q9Y2R4)
inactive: [1] -0.101 | [2] -0.158 | IRAK-1-4 Inhibitor I -0.086 | ibrutinib -0.219 | ralimetinib -0.002 | [5] 0.141 | pinometostat 0.544

DENND1B (UniProt Q6P3S1)
inactive: [8] 0.105 | [12] -0.136 | [9] -0.131 | [1] 0.056 | [10] 0.032 | IRAK-1-4 Inhibitor I 0.091 | ibrutinib 0.071 | [11] 0 | [14] 0.153 | pinometostat -0.023 | [6] 0.231

DHPS (UniProt M0R1T2)
inactive: [1] 0.099 | ibrutinib 0.124

DMKN (UniProt Q6E0U4)
inactive: erlotinib -0.012 | [13] 0.185 | [1] 0.076 | [2] -0.014 | [3] -0.03 | [4] -0.43 | ibrutinib 0.194 | ralimetinib -0.106 | [15] -0.237 | [5] -0.055 | [6] -0.226 | [7] 1.29

DIRAS1 (UniProt O95057)
inactive: [3] 0.085 | [4] 0.056 | [7] -0.039

Source: the supplement of paper PMC10849652
